Data reported in PubChem BioAssay AID652054 (National Center for Advancing Translational Sciences (NCATS), 2013).
About 9,100 (2.5%) of roughly 360,000 compounds were called active. Inconclusive means that the source gave no clear call. Such entries were picked first, then a sample of the others. Cut-off read from the data, not from the text of the source: active = max response below about -50%; inconclusive = no clear call, values can overlap the other calls; inactive = above that.

Protein sequences, listed by entry. Tags and fused reporters are not part of them.
UniProt P35462, whole entry, looked up: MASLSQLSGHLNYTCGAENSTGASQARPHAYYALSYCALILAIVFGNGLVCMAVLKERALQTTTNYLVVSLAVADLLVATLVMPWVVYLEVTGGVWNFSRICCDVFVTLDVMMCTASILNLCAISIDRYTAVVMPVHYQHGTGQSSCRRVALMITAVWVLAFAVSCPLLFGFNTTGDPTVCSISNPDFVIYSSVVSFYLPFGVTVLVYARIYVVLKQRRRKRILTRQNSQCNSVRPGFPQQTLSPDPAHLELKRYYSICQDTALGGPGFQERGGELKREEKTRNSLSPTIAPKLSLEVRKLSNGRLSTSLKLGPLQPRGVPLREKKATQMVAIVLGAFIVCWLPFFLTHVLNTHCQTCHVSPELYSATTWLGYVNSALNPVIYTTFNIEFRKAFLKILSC

Each compound was assayed against D(3) dopamine receptor (Homo sapiens) (UniProt P35462) (assay: qHTS of D3 Dopamine Receptor Antagonist: qHTS). Settings: D3R cells, DiscoveRx beta-arrestin luminescence, antagonist mode; active compounds read low.
Summary of the method: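 Cells expressing the human receptor were seeded at 1500 cells/well, incubated overnight at 37 degrees C in 5% CO2, then exposed to library compounds with dopamine controls for 90 minutes at 37 degrees C before luminescent detection.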
% is set by controls: 0 for no effect and ±100 for the full control effect.

Max response, negative = inhibition, inactive:
Cc1cc(C)nc(Nc2nc3ccccc3o2)n1 -18.4%
O=[N+]([O-])c1cc(S(=O)(=O)N2CCCCC2)ccc1NCCCN1CCOCC1 -10.9%
O=C(O)CCC(=O)c1ccc(C2CCCCCC2)cc1 1.25%
COc1cccc(-c2nnc(NC(=O)c3ccc(Cl)s3)o2)c1 -17.5%
CC(=O)N1CCCc2cc(S(=O)(=O)N3CCCC(C(=O)NCc4ccccc4)C3)ccc21 (stereo unspecified) 18.3%
COc1ccc(C2=NN3C(C2)c2ccccc2OC3c2cccs2)cc1 (stereo unspecified) -6.98%
Cc1ccc(NC(=O)CCNC(=O)c2ccc(Br)cc2)cc1S(=O)(=O)N1CCOCC1 13.8%
O=C(CN1C(=O)C(c2ccc(F)cc2)=NC12CCCC2)Nc1ccc(F)cc1 39%
Fc1ccccc1CNC(=S)Nc1cccc(C(F)(F)F)c1 -7.79%

Max response, negative = inhibition, inconclusive:
COc1ccc(Cc2c(-c3ccco3)nc3ccc(Cl)cn23)c(C)c1 -36%
CCCNCc1cc(OC)c(OCC(=O)NCCc2ccccc2)cc1Br -39.5%
Fc1cnc(N2CCc3ccccc32)nc1N1CCc2ccccc21 -39.4%
COC(=O)c1sc(NC(=O)c2ccc(Cn3cc(Cl)cn3)o2)c(C#N)c1C -43.2%
COc1ccccc1N(CC(=O)NC1CCCC1)C(=O)CCC(=O)Nc1cc(C)on1 -44%
Cc1ccc(OCCN2C(=O)C(=O)c3cc(C)ccc32)cc1 -37.3%
OCCN(Cc1ccccc1)Cc1ccccc1F -46.7%
Cc1ccc2nc(Nc3nc(CSc4nc5ccccc5s4)cc(=O)[nH]3)nc(C)c2c1 -31.8%
CCN(Cc1ccccc1)c1ccc(/C=N/NS(=O)(=O)c2ccc(C)c([N+](=O)[O-])c2)cc1 -49.8%
NC(=O)C1CCN(C(=S)c2cccs2)CC1 -44.8%
C=CCN(c1ccccc1)S(=O)(=O)c1ccc2c(c1)oc(=O)n2C -31.6%
Cc1ccc(C2C(C(=O)c3cccs3)=C(O)C(=O)N2CCN2CCOCC2)o1 (stereo unspecified) -47.6%
Cc1cc(OCC(=O)NNC(=S)NCC2CCCO2)cc(C)c1Cl (stereo unspecified) -37.6%
CC(C)c1cccc(C2=CC(=O)C[C@H](c3ccc4c(c3)OCO4)C2)c1 -45.9%
Cc1c(C)n(CCc2ccccc2)c2ncnc(NCCCN(C)C)c12 -32.5%
CCOc1ccc(OCCCN(C)C)cc1 -31.3%
Cc1cccc(C2c3[nH]c4ccccc4c3CCN2C(=O)c2cn(C)c3ccccc3c2=O)n1 (stereo unspecified) -30.4%
O=C1CCCCC1Nc1ccc([N+](=O)[O-])cc1 (stereo unspecified) -34.7%
CC(=O)c1ccc(OCCCC(=O)NCC(c2ccco2)N(C)C)cc1 (stereo unspecified) -31.6%
O=C(O)CCC(NS(=O)(=O)c1ccc(-c2ccccc2)cc1)C(=O)O (stereo unspecified) -38.8%
Cc1cc([N+](=O)[O-])ccc1NC(=S)NC(=O)C(c1ccccc1)c1ccccc1 -33.5%
O=C(COC(=O)CCN1C(=O)C2CC=CCC2C1=O)NCCc1ccc(F)cc1 (stereo unspecified) -44.2%
COc1ccc(C(=O)/C=C/c2ccc(F)cc2)c(OC(=O)c2ccc([N+](=O)[O-])cc2)c1 -40.7%
CCOc1cccc2cc(C(=O)N3CCN(C/C=C/c4ccccc4)CC3)c(=O)oc12 -38%
Cc1cccc(NC(=S)N(CCCN2CCOCC2)C(C)c2cc3ccccc3o2)c1C (stereo unspecified) -41.8%
O=C(NCc1cccnc1)c1cccc(S(=O)(=O)N2CCOCC2)c1 -30.5%
Cc1cccc2cc3c(nc12)SC(=NCC1CCCO1)N(Cc1ccco1)C3 (stereo unspecified) -38.8%
COc1ccc(CCN(C)Cc2ccc(OC)c(OCc3ccccc3)c2)cc1OC -39.4%
CC(=O)Nc1ccc(S(=O)(=O)Nc2nc3ccccc3s2)cc1 -48.4%
Cc1ccc(NC(=O)CNc2ccc(Cl)cc2F)cc1 -37.5%
COc1ccccc1-n1c(C)nnc1SCC(=O)Nc1cccc(C(C)=O)c1 -30.5%
O=C(CSc1nnc(-c2ccncc2)o1)Nc1cc(F)ccc1F -30.9%
CN1CCC(=O)N(CCOc2ccccc2)CC1 -47.8%
CC(C)CC(C(=O)Nc1oc(-c2ccccc2)c(-c2ccccc2)c1C#N)N1C(=O)c2ccccc2C1=O (stereo unspecified) -41.2%
CCc1nc2ccc(C(=O)NCc3ccccc3OC)cn2c1N(C)Cc1ccc(N(C)C)cc1 -38.4%
COc1c2c(c(OC)c3ccccc13)[C@]1(OC2)O[C@H](CCO)C[C@H](O)[C@H]1O -44.4%
O=C(Nc1ccc(N2CCCC2)c(Cl)c1)c1ccc([N+](=O)[O-])cc1 -39.8%
C=CCC(c1ccccc1F)N(CCN1CCOCC1)C(=O)Nc1cccc(Cl)c1 (stereo unspecified) -30.5%
CCCN1CCCc2cc(CN)ccc21 -38.6%
CCCC(c1nnnn1CCOC)N1CCN(Cc2ccccc2)CC1 (stereo unspecified) -39.4%
COc1ccc(-c2sc3ccccc3c2-c2ccc(OCCN3CCCCC3)cc2)cc1 -49.5%

Part of the list above in order of molecular weight, ascending:
Max response, negative = inhibition, inconclusive:
O=C1CCCCC1Nc1ccc([N+](=O)[O-])cc1 (stereo unspecified) -34.7%
CN1CCC(=O)N(CCOc2ccccc2)CC1 -47.8%
Cc1ccc(NC(=O)CNc2ccc(Cl)cc2F)cc1 -37.5%
COc1c2c(c(OC)c3ccccc13)[C@]1(OC2)O[C@H](CCO)C[C@H](O)[C@H]1O -44.4%

Next part:

Max response, negative = inhibition, active:
O=C(NCc1ccc(OC(F)(F)F)cc1)c1cccc2c1C(=O)c1ccc(N3CCCC3)cc1S2(=O)=O -50.7%
O=C(NC(=S)Nc1cccc(F)c1)c1cccc([N+](=O)[O-])c1 -51.4%
O=C(Nc1ccccc1Cl)C1CCN(Cc2cnn(-c3ccccc3)c2-n2cccc2)CC1 -79.8%
Oc1cnc2ccccc2c1CN1CCOCC1 -77.5%
O=[N+]([O-])/C=C/c1ccc2c(ccn2Cc2ccccc2)c1 -54.4%
O=C(NCCc1ccccc1)C1Cc2c(-c3ccccc3)ccnc2O1 (stereo unspecified) -67.5%
